± gives the uncertainty stated by the source. Many entries were measured with a wide error.
Test: self-splicing fitness, log relative to wild type (ln ratio); higher = more splicing; Tetrahymena group I intron in knt gene, E. coli kanamycin selection, DiMSum; sequences stand for … in CUCUCU…GGAGGGAAAAGUUAUCAGGCAUGCACCUGGUAGCUAGUCUUUAAACCAAUAGAUUGCAUCGGUUUAAAAGGCAAGACCGUCAAAUUGCGGGAAAGGGGUCAACAGCCGUUCAGUACCAAGUCUCAGGGGAAACUUUGAGAUGGCCUUGCAAAGGGUAUGGUAAUAAGCUGACGGACAUGGUCCUAACCACGCAGCCAAGUCCUAAGUCAACAGAUCUUCUGUUGAUAUGGAUGCAGUUCACAGACUAAAUGUCGGUCGGGGAAGAUGUAUUCUUCUCAUAAGAUAUAGUCGGACCUCUCCUUAAUGGGAGCUAGCGGAUGAAGUGAUGCAACACUGGAGCCGCUGGGAACUAAUUUGUAUGCGAAAGUAUAUUGAUUAGUUUUGGAGUACUCGUGGUCG
In short: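 Six replicate transformations of E. coli BL21(DE3) with a pET-22b(+) library were grown overnight at 37°C or 30°C. The library randomised all eight P1ex-region intron nucleotides, the intron lying in the knt kanamycin-resistance gene, and plates were LB agar with or without 25 μg/mL kanamycin plus 100 μg/mL carbenicillin, 50 μM IPTG and 0.2% rhamnose. Pooled colonies were amplicon-sequenced on an Illumina HiSeq 2500, and fitness is the DiMSum error-weighted combination of wild-type-normalised replicate fold changes, kanamycin versus none.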

Sequence	self-splicing fitness (ln) (30 °C)	self-splicing fitness (ln) (37 °C)
AAAAAGCAAUAUUACGUGGG	-3.51 ± 0.13	-2.03 ± 0.13
GGGAAGCAAUAUUACGGGAU	-1.34 ± 0.73	–
CUGUAGCAAUAUUACGAUGC	–	-4.49 ± 0.51
CCACAGCAAUAUUACGAUGC	-3.7 ± 0.17	-2.66 ± 0.21
UUGGAGCAAUAUUACGUAUC	–	-2.91 ± 0.73
GCGGAGCAAUAUUACGACUA	-2.02 ± 1.2	-1.37 ± 1.2
GCAGAGCAAUAUUACGCGAC	-4.61 ± 0.73	–
AUCGAGCAAUAUUACGUACC	-3.76 ± 0.35	-1.53 ± 0.34
AACGAGCAAUAUUACGGCGA	-1.95 ± 0.23	-0.978 ± 0.2
AAUGAGCAAUAUUACGAUGC	–	-1.96 ± 0.69
GGGUAGCAAUAUUACGUCCC	–	-2.54 ± 0.54
UUCGAGCAAUAUUACGACUC	-3.26 ± 1	-1.29 ± 1.2
CUCUAGCAAUAUUACGGUGC	–	-3.45 ± 0.72
CGAAAGCAAUAUUACGGCAU	-2.26 ± 0.12	-0.29 ± 0.089
CCUGAGCAAUAUUACGGUCC	-1.71 ± 0.36	-1.22 ± 0.43
GGCCAGCAAUAUUACGCUUG	-4.13 ± 0.26	-2.58 ± 0.2
UCUCAGCAAUAUUACGGAGU	-2.81 ± 0.22	-2.49 ± 0.19
UACGAGCAAUAUUACGGCCC	–	-1.3 ± 0.6
AAGGAGCAAUAUUACGGUGC	–	-2.77 ± 1.1
UUGUAGCAAUAUUACGGGGG	–	-1.94 ± 0.79
CCGAAGCAAUAUUACGGGCA	-4.65 ± 1	–
AGGGAGCAAUAUUACGAACG	-2.58 ± 0.39	-1.9 ± 0.36
ACGAAGCAAUAUUACGAGAC	–	-3.33 ± 1
UUCGAGCAAUAUUACGCACG	-1.61 ± 0.55	-2.16 ± 1.1

Sequence	self-splicing fitness (ln) (30 °C)	self-splicing fitness (ln) (37 °C)
UGAUAGCAAUAUUACGAAGC	–	-3.43 ± 0.6
ACAUAGCAAUAUUACGCAUA	-3.01 ± 0.17	-1.85 ± 0.12
GCUUAGCAAUAUUACGUCAC	-4.29 ± 1	–
UCGGAGCAAUAUUACGUAGU	-3.9 ± 1	–
CCAAAGCAAUAUUACGCCUA	-4.18 ± 0.33	-3.12 ± 0.35
CGGGAGCAAUAUUACGGCCC	–	-0.693 ± 1.4
CUUAAGCAAUAUUACGAGCA	-4.13 ± 0.59	-2.85 ± 0.53
GCAGAGCAAUAUUACGCUUU	-4.4 ± 0.52	-3.01 ± 0.27
UCGUAGCAAUAUUACGGAGU	–	-3.16 ± 1
AGGAAGCAAUAUUACGCAUC	-3.94 ± 0.6	–
GGGGAGCAAUAUUACGCAGC	-1.52 ± 1.2	-0.557 ± 0.56
UGGGAGCAAUAUUACGACCC	-2.25 ± 1.1	-1.87 ± 0.79
ACGAAGCAAUAUUACGAUUC	-4.44 ± 0.51	–
AGGAAGCAAUAUUACGAUAA	-1.9 ± 0.21	-1.33 ± 0.29
GGAAAGCAAUAUUACGUCGC	-0.897 ± 0.17	-0.926 ± 0.2
UUAUAGCAAUAUUACGUUAU	-3.9 ± 1	–
CUCUAGCAAUAUUACGCAUC	-3.63 ± 0.53	–
AAUGAGCAAUAUUACGAAAG	-4.04 ± 0.52	–
CUUGAGCAAUAUUACGAUUU	-5.05 ± 0.58	–
GUGGAGCAAUAUUACGGUCU	-2.12 ± 0.52	-1.45 ± 0.54
CGAGAGCAAUAUUACGUCCU	–	-2.01 ± 0.84
AGUGAGCAAUAUUACGUCGC	–	-2.76 ± 0.75
GUGGAGCAAUAUUACGGGAC	–	-2.66 ± 0.76
UUUUAGCAAUAUUACGGAAU	-3.97 ± 0.51	–

Sequence	self-splicing fitness (ln) (30 °C)	self-splicing fitness (ln) (37 °C)
UAGUAGCAAUAUUACGCCUC	-3.9 ± 0.74	–
UUGUAGCAAUAUUACGCUUC	-3.08 ± 0.74	-1.8 ± 0.83
AAUAAGCAAUAUUACGCUCG	-0.686 ± 0.14	0.0576 ± 0.19
UCAUAGCAAUAUUACGCCCC	-2.25 ± 0.56	-2.08 ± 1.1
UCAAAGCAAUAUUACGAACU	-3.14 ± 0.19	-1.97 ± 0.23
AGCGAGCAAUAUUACGCCUC	–	-3.37 ± 0.75
ACUGAGCAAUAUUACGUCUA	-3.82 ± 0.61	–
GGAAAGCAAUAUUACGUUCC	-2.04 ± 0.57	-1.85 ± 0.81
UGUAAGCAAUAUUACGCUGC	-1.05 ± 0.67	-1.47 ± 0.55
GCCCAGCAAUAUUACGGAGC	-4.06 ± 0.39	-2.17 ± 0.34
AUGAAGCAAUAUUACGUCCU	-0.113 ± 0.093	0.0551 ± 0.11
GGUGAGCAAUAUUACGCUAC	–	-3.94 ± 0.59
UUUUAGCAAUAUUACGUCCC	-3.18 ± 0.62	–
GAGGAGCAAUAUUACGAAUU	–	-3.2 ± 0.52
UCUGAGCAAUAUUACGCGCG	-3.51 ± 0.77	–
GGCAAGCAAUAUUACGCCAC	–	-3.37 ± 0.73
GGGAAGCAAUAUUACGAGGU	–	-3.94 ± 0.73
CUUUAGCAAUAUUACGCAUA	–	-2.97 ± 0.53
UAACAGCAAUAUUACGACUC	-0.882 ± 0.084	-0.517 ± 0.11
UGUUAGCAAUAUUACGACCC	-2.01 ± 0.58	-1.07 ± 0.74
GUUGAGCAAUAUUACGAGGA	–	-2.05 ± 0.57
GUAUAGCAAUAUUACGCUCC	-3.12 ± 1.1	-1.29 ± 1.2
AACGAGCAAUAUUACGGAGU	-5.7 ± 0.71	–
UCGGAGCAAUAUUACGCUAA	–	-1.85 ± 0.86

Sequence	self-splicing fitness (ln) (30 °C)	self-splicing fitness (ln) (37 °C)
UAGGAGCAAUAUUACGACUC	–	-0.778 ± 1.4
GUAGAGCAAUAUUACGAGCU	-2.67 ± 0.22	-1.66 ± 0.23
UGGUAGCAAUAUUACGGAGA	-3.01 ± 0.62	–
AGUAAGCAAUAUUACGGUCG	-1.95 ± 0.083	-0.559 ± 0.087
UAUGAGCAAUAUUACGUCAA	-3.66 ± 0.52	–
AUCGAGCAAUAUUACGCUCG	–	-2.31 ± 0.78
GUUGAGCAAUAUUACGCGCC	–	-1.29 ± 0.69
GAAGAGCAAUAUUACGUCAC	-4.88 ± 1	–
AUGGAGCAAUAUUACGGUAC	-4.49 ± 1	-1.79 ± 0.58
GAUUAGCAAUAUUACGCAGC	–	-1.28 ± 0.55
CUGGAGCAAUAUUACGGUUA	-1.79 ± 0.26	-2.31 ± 0.26
GUGCAGCAAUAUUACGGGCC	-2.84 ± 0.53	-0.728 ± 0.52
CCUUAGCAAUAUUACGCACU	-2.46 ± 0.41	-1.29 ± 0.22
CCUGAGCAAUAUUACGUAUC	-4.46 ± 0.59	–
AAAGAGCAAUAUUACGCAGA	-1.5 ± 0.51	-2.17 ± 0.56
CAUUAGCAAUAUUACGAUGC	-4.85 ± 0.59	–
AAAUAGCAAUAUUACGGUCU	0.108 ± 0.076	-0.388 ± 0.084
GAUGAGCAAUAUUACGACAG	–	-2.35 ± 0.76
GUUGAGCAAUAUUACGCUGC	-2.7 ± 0.76	–
AUGGAGCAAUAUUACGUUAC	–	-3.04 ± 0.61
UCUUAGCAAUAUUACGGUAG	-4.12 ± 1	–
GGGCAGCAAUAUUACGCUUC	-3.18 ± 0.52	–
UAGAAGCAAUAUUACGAGUA	-1.31 ± 0.096	-0.33 ± 0.12
CUAGAGCAAUAUUACGUCGC	-4.29 ± 0.73	-2.89 ± 0.61

Random excerpt: 6 records from the list.
Sequence	self-splicing fitness (ln) (30 °C)	self-splicing fitness (ln) (37 °C)
GUUGAGCAAUAUUACGCUGC	-2.7 ± 0.76	–
UCUUAGCAAUAUUACGGUAG	-4.12 ± 1	–
UAGGAGCAAUAUUACGACUC	–	-0.778 ± 1.4
GAAGAGCAAUAUUACGUCAC	-4.88 ± 1	–
GAUGAGCAAUAUUACGACAG	–	-2.35 ± 0.76
CUGGAGCAAUAUUACGGUUA	-1.79 ± 0.26	-2.31 ± 0.26

Additional entries

Sequence	self-splicing fitness (ln) (30 °C)	self-splicing fitness (ln) (37 °C)
GGAGAGCAAUAUUACGAAGG	-3.59 ± 0.74	-1.15 ± 0.84
GUUGAGCAAUAUUACGGGAG	-4.25 ± 0.59	–
AGAUAGCAAUAUUACGCUUC	-2.66 ± 0.42	-2.27 ± 0.49
UAUGAGCAAUAUUACGGGAC	-6.35 ± 1	–
GGAAAGCAAUAUUACGCUUU	-4.89 ± 0.59	–
AACGAGCAAUAUUACGCAGU	-2.87 ± 0.23	-2.52 ± 0.29
GUAGAGCAAUAUUACGCCAC	–	-3.64 ± 1
CGGAAGCAAUAUUACGGACC	–	1.71 ± 0.74
GGGGAGCAAUAUUACGCCGA	–	-1.36 ± 0.84
GUGCAGCAAUAUUACGCACA	-3.26 ± 0.18	-1.67 ± 0.12
UGAGAGCAAUAUUACGGCUU	–	-4.18 ± 1
GUGUAGCAAUAUUACGGUUG	-2.88 ± 0.14	-2.61 ± 0.16
UCGGAGCAAUAUUACGAAGU	-4.16 ± 1	–
GUAGAGCAAUAUUACGCCAG	-2.44 ± 1.1	–
CACUAGCAAUAUUACGGGGC	-3.4 ± 0.17	-2.23 ± 0.14
CGGGAGCAAUAUUACGUAUG	–	-2.14 ± 0.63
GCGAAGCAAUAUUACGCUGC	-3.42 ± 1	-2.74 ± 1.1
CUCUAGCAAUAUUACGUGCC	-3.23 ± 0.28	-3.62 ± 0.39
UAUGAGCAAUAUUACGGCAC	–	-2.72 ± 0.61
UUAGAGCAAUAUUACGCCGU	-2.72 ± 0.53	-1.21 ± 0.68
UCAAAGCAAUAUUACGCUCC	-3.3 ± 0.54	–
